From the supplement of paper PMC10849652
The list shows a part of the results.

Chains of the proteins cited; added tags and fusions are not shown. Lines headed by an entry give the natural chain unless they say otherwise; changes in a name come on top.
UniProt Q9Y2Y0: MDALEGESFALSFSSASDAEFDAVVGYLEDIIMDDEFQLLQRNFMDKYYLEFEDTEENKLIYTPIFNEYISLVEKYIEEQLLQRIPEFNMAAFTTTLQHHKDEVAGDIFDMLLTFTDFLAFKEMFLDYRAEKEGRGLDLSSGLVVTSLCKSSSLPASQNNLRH
UniProt Q9NXU5: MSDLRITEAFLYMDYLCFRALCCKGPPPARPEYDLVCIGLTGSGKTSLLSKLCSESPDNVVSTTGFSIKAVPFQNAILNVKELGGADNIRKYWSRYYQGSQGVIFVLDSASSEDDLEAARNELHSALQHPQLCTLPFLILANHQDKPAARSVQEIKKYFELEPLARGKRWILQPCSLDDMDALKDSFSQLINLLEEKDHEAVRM
UniProt Q15041, whole entry, looked up: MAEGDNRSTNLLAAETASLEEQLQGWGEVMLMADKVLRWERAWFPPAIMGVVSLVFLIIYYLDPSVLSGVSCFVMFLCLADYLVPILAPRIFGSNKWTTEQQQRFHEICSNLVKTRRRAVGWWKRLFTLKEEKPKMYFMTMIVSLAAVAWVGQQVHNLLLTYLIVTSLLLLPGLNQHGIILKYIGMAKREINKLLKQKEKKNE
UniProt P78540: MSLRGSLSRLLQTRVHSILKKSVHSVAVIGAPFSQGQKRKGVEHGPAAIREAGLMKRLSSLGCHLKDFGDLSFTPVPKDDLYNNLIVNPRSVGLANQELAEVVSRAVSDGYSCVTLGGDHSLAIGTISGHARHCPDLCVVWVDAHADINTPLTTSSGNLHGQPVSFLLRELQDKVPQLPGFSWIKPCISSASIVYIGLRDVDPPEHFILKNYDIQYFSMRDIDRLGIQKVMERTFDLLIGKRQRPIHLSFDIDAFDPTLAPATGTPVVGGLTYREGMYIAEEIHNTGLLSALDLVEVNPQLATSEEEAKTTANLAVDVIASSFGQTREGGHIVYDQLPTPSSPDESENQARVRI
UniProt Q9NVT9: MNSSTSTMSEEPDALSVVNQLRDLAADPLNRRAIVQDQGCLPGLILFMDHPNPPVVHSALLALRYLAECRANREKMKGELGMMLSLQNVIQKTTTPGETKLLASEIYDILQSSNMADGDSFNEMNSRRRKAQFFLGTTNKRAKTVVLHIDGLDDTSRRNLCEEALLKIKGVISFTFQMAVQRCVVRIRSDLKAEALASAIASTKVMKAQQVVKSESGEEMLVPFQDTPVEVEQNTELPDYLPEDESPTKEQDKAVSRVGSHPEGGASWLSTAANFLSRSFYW
UniProt Q07960: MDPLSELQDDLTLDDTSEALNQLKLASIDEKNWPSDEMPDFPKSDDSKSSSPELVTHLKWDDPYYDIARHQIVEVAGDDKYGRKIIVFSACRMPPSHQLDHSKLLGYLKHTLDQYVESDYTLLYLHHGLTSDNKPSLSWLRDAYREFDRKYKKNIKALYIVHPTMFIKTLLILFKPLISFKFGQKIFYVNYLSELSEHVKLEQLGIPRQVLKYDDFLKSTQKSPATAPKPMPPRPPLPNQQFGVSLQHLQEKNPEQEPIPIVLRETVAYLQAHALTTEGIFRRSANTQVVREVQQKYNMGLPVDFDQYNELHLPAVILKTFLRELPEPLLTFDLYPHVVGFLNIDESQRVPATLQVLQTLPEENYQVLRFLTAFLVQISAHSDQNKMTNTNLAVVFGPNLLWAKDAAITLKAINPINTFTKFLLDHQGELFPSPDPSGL
UniProt Q8N2F6: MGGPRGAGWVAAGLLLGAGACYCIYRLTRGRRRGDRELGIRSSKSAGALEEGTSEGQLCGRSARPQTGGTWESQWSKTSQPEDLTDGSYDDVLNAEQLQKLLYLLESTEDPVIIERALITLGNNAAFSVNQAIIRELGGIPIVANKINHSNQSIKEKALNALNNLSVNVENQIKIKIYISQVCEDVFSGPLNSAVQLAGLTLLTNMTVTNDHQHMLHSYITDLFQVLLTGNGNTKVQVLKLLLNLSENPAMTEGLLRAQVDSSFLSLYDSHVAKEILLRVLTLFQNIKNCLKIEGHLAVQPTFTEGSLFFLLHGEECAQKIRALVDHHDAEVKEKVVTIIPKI
UniProt O15085: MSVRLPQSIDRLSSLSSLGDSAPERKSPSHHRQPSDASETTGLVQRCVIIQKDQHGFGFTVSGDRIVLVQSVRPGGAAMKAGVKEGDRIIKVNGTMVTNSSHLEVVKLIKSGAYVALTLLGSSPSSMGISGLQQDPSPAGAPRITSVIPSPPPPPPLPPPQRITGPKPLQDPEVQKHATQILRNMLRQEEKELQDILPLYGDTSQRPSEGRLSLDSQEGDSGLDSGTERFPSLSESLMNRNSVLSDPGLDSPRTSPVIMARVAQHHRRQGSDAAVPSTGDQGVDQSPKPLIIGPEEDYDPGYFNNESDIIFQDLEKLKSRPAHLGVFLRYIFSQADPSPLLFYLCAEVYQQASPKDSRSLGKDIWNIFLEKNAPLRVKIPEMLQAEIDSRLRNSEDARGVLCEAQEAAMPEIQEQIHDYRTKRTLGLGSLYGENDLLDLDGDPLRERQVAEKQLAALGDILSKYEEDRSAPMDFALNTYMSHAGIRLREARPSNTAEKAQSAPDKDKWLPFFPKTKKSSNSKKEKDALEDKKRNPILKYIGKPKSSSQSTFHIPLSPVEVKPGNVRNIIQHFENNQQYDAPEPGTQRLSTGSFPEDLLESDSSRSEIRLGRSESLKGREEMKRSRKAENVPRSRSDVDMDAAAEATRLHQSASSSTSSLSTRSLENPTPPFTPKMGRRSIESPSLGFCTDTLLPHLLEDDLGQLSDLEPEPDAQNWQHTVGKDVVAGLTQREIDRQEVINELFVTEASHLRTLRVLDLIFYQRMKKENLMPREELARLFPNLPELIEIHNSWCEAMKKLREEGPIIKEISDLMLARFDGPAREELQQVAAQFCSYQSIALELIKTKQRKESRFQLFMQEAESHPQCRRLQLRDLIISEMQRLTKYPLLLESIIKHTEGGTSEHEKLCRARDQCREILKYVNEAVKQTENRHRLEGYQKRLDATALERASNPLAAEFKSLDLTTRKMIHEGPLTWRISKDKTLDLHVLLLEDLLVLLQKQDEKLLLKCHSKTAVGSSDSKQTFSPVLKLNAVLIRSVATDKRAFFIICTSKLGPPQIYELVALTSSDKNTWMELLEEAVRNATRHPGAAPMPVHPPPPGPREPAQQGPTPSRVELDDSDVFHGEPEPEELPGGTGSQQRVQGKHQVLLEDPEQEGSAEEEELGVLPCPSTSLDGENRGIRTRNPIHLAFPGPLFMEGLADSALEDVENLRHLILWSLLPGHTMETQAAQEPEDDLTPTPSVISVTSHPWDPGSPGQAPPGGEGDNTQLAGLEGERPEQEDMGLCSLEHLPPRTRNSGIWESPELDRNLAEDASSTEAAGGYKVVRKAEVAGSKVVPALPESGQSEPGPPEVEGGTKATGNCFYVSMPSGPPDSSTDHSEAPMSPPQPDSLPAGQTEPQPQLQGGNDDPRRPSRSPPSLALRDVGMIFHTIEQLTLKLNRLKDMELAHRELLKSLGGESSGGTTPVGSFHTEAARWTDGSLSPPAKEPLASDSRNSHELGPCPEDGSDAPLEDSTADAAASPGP
UniProt Q8N6H7: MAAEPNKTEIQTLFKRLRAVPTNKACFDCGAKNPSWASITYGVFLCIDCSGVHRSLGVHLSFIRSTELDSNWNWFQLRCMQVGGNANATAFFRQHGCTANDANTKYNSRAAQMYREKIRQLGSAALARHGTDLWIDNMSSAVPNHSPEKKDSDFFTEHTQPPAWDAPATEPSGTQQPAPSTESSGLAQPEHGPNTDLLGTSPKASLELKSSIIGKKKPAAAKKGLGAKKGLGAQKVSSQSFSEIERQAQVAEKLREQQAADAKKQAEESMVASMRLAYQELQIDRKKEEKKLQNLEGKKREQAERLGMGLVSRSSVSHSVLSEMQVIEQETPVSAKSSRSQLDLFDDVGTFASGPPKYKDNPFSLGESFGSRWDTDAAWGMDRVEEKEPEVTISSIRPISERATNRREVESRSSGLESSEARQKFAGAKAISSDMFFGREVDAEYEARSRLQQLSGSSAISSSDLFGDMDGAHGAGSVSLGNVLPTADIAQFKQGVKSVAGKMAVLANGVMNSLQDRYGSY
UniProt Q15052: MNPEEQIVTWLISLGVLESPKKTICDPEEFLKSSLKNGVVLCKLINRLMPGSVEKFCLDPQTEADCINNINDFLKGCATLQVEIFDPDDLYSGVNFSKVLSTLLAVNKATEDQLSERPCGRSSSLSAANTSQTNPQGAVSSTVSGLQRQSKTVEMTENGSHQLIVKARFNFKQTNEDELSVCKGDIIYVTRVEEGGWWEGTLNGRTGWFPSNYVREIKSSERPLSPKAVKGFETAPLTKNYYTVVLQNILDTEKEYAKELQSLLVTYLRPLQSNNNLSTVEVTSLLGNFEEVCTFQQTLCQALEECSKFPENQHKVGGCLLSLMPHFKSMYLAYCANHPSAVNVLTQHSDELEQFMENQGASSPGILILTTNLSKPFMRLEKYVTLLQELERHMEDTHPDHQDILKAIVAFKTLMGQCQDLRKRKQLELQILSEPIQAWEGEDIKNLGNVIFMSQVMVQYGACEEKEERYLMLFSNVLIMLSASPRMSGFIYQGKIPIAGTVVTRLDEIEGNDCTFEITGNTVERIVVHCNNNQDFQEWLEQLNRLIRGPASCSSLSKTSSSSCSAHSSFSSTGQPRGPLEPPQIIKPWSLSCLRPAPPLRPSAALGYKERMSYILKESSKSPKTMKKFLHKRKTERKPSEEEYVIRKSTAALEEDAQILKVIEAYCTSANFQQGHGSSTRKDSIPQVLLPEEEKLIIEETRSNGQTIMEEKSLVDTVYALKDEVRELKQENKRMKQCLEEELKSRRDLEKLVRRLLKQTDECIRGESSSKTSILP
UniProt P27540, whole entry, looked up: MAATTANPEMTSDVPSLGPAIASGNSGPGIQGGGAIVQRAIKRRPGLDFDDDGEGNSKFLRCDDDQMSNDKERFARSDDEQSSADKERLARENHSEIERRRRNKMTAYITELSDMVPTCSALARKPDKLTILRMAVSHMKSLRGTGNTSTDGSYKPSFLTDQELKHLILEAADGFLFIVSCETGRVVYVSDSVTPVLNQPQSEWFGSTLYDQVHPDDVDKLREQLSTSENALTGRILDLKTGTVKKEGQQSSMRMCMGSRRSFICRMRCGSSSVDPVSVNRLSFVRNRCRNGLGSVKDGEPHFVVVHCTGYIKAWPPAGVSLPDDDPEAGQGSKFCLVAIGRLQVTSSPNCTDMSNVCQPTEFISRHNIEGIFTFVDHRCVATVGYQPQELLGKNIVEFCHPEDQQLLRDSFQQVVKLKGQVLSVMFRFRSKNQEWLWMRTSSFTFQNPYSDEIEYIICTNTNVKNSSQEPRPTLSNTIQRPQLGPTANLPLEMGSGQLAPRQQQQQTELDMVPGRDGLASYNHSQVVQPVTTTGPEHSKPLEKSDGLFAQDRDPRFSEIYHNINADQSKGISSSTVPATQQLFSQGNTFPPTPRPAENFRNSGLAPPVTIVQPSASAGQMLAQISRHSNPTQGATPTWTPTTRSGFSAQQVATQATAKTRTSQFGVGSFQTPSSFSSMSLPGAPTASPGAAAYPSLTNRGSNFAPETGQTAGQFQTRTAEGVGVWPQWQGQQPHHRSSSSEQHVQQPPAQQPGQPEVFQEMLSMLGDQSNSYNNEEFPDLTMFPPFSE
UniProt P13798: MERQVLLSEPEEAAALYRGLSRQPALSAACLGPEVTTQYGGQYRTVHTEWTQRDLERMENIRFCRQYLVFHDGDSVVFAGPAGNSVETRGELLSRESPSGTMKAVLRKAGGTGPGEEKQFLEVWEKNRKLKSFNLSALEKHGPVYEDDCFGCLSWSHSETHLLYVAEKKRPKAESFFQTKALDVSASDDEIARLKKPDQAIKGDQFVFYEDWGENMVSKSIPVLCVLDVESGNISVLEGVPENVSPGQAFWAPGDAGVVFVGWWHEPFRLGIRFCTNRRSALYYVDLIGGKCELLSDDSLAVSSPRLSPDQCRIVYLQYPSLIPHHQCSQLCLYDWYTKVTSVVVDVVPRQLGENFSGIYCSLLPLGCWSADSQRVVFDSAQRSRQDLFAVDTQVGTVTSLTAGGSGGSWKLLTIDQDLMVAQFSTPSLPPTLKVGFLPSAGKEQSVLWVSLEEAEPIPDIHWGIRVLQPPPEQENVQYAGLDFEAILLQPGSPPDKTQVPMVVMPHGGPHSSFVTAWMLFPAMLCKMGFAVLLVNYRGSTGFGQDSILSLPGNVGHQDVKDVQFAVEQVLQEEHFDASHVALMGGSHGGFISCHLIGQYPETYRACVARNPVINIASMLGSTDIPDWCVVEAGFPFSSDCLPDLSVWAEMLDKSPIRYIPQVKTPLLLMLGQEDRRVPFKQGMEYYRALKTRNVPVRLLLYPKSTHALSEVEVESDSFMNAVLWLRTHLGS

Tests used:
Assay in all cases: log2 fold change, soluble protein after heating vs DMSO (PISA); higher = thermal stabilisation; K562 lysate, 10 uM; active = over 0.2 and 3.5 SD of the protein, either way, in both replicates (recomputed)
ibrutinib = compound: C=CC(=O)N1CCC[C@@H](n2nc(-c3ccc(Oc4ccccc4)cc3)c3c(N)ncnc32)C1 [ibrutinib]
Summary of the method: (§1)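 Quantification was by TMTpro 16plex LC-MS/MS with equalised channel sums, applied to the supernatant after 21,000xg for 90 min. Samples were crude K562 extract at 1 mg/mL protein in PBS pH 7.4 with 1 mM MgCl2, treated with 10 μM compound for 30 min, heated for 3 min across 48°C-58°C, pooled and brought to 0.5% NP-40 at 4°C. Values are log-two fold changes in thermal stability relative to solvent controls, from duplicates.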

[1] = compound: CC(=O)c1cnc2ccc(-c3cc(Cl)c(O)c(Cl)c3)nc2c1N[C@H]1CC[C@H](CN(C)C)CC1
Summary of the method: as §1

ralimetinib = compound: CC(C)(C)Cn1c(N)nc2ccc(-c3[nH]c(C(C)(C)C)nc3-c3ccc(F)cc3)nc21 [ralimetinib]
Summary of the method: as §1

[2] = compound: CC(C)(O)CC(=O)NCCn1ccc2ncnc(Nc3ccc(Oc4cccc(C(F)(F)F)c4)c(Cl)c3)c21
Summary of the method: as §1

[3] = compound: CC(C)C1=C2N=C(C=C(N2N=C1)NCC3=CC=CC=C3)NCCCCCCN
Summary of the method: as §1

[4] = compound: CC1=C(C(CC(=O)N1)C2=CC=C(C=C2)C(F)(F)F)C(=O)NC3=C(C=C4C(=C3)C=NN4)F
Summary of the method: as §1

[5] = compound: CC1=C(C2=C(C=C1)C(=O)C3=CC=CC=C3N2CCCN)C
Summary of the method: as §1

[6] = compound: CC1=C(C=C(C=C1)NC(=O)C2=CC(=CC=C2)C(C)(C)C#N)NC3=CC4=C(C=C3)N=CN(C4=O)C
Summary of the method: as §1

[7] = compound: CC1=C(C=C(C=C1)NC(=O)C2=CC(=CC=C2)N(C)C)NC(=O)C3=CC=C(C=C3)O
Summary of the method: as §1

[8] = compound: CC1=CC=C(C=C1)SC2=C3C=C(SC3=CN=C2)C(=O)N
Summary of the method: as §1

vemurafenib = compound: CCCS(=O)(=O)Nc1ccc(F)c(C(=O)c2c[nH]c3ncc(-c4ccc(Cl)cc4)cc23)c1F [vemurafenib]
Summary of the method: as §1

[9] = compound: CCCS(=O)(=O)Nc1ccc(F)c(C(=O)c2c[nH]c3ncc(Cl)cc23)c1F
Summary of the method: as §1

barasertib = compound: CCN(CCCOc1ccc2c(Nc3cc(CC(=O)Nc4cccc(F)c4)[nH]n3)ncnc2c1)CCOP(=O)(O)O [barasertib]
Summary of the method: as §1

[10] = compound: CC[C@@H]1C(=O)N(C)c2cnc(Nc3ccc(C(=O)NC4CCN(C)CC4)cc3OC)nc2N1C1CCCC1
Summary of the method: as §1

volasertib = compound: CC[C@@H]1C(=O)N(C)c2cnc(Nc3ccc(C(=O)N[C@H]4CC[C@H](N5CCN(CC6CC6)CC5)CC4)cc3OC)nc2N1C(C)C [volasertib]
Summary of the method: as §1

[11] = compound: CCn1c(C(=O)N(C2CC2)C2CC2)cc2c3c(ncn3C)c(Nc3cc(C)n(C)n3)nc21
Summary of the method: as §1

[12] = compound: CCn1cc(-c2ccnc3[nH]c(-c4cccc(CN(C)C)c4)cc23)c(-c2ccc(NC(=O)N(C)C)cc2)n1
Summary of the method: as §1

[13] = compound: CN1CCC(CNc2ccc3ncc(-c4cccc(OC(F)(F)F)c4)n3n2)CC1
Summary of the method: as §1

saracatinib = compound: CN1CCN(CCOc2cc(OC3CCOCC3)c3c(Nc4c(Cl)ccc5c4OCO5)ncnc3c2)CC1 [saracatinib]
Summary of the method: as §1

sotrastaurin = compound: CN1CCN(c2nc(C3=C(c4c[nH]c5ccccc45)C(=O)NC3=O)c3ccccc3n2)CC1 [sotrastaurin]
Summary of the method: as §1

Measured: log2 fold change

ARL2BP (UniProt Q9Y2Y0)
inactive: ibrutinib 0.002 | [1] -0.005 | ralimetinib 0 | [2] -0.138 | [3] 0.04 | [4] -0.027 | [5] -0.053 | [6] 0.072 | [7] -0.003 | [8] 0.009 | vemurafenib 0.014 | [9] 0.005 | barasertib -0.019 | [10] 0.005 | volasertib -0.005 | [11] 0.019 | [12] -0.167 | [13] 0.035 | saracatinib -0.047 | sotrastaurin 0.067

ARPC4 isoform 3 (UniProt P59998)
inactive: ibrutinib 0.005 | [1] 0.004 | ralimetinib 0.021 | [2] 0.007 | [3] -0.022 | [4] -0.056 | [5] 0.004 | [6] 0.001 | [7] -0.022 | [8] 0.018 | vemurafenib -0.012 | [9] -0.024 | barasertib 0.029 | [10] -0.012 | volasertib 0.026 | [11] 0.047 | [12] 0.005 | [13] 0.033 | saracatinib 0 | sotrastaurin -0.006

ARL15 (UniProt Q9NXU5)
inactive: ibrutinib -0.015 | [1] 0.048 | ralimetinib -0.012 | [2] -0.05 | [3] 0.015 | [4] 0.005 | [5] 0.005 | [6] 0.001 | [7] 0.033 | [8] -0.005 | vemurafenib -0.057 | [9] -0.019 | barasertib 0.002 | [10] -0.082 | volasertib -0.009 | [11] 0.035 | [13] -0.119 | saracatinib -0.01 | sotrastaurin 0.049
active: [12] 0.765

ARL6IP1 (UniProt Q15041)
inactive: ibrutinib 0.141 | [1] 0.007 | ralimetinib -0.021 | [2] 0.024 | [3] -0.033 | [4] -0.004 | [5] -0.04 | [6] -0.025 | [7] 0.018 | [8] -0.02 | vemurafenib -0.013 | [9] -0.051 | barasertib -0.113 | [10] 0.042 | volasertib 0.004 | [11] 0.008 | [12] -0.086 | [13] 0.064 | saracatinib -0.021 | sotrastaurin -0.036

ARG2 (UniProt P78540)
inactive: ibrutinib 0.03 | [1] 0.009 | ralimetinib -0.002 | [2] -0.072 | [3] -0.018 | [4] -0.003 | [5] -0.052 | [6] 0.053 | [7] 0.012 | [8] -0.017 | vemurafenib 0.008 | [9] 0.008 | barasertib 0.004 | [10] 0.045 | volasertib 0.041 | [11] -0.005 | [12] -0.036 | [13] 0.066 | saracatinib -0.04 | sotrastaurin -0.009

ARHGAP4 isoform 2 (UniProt P98171)
inactive: ibrutinib 0.027 | [1] 0.016 | ralimetinib 0.006 | [2] -0.005 | [3] 0.014 | [4] 0.031 | [5] 0.003 | [6] 0 | [7] 0.067 | [8] 0.005 | vemurafenib -0.023 | [9] 0.031 | barasertib 0.007 | [10] 0.01 | volasertib -0.06 | [11] 0.047 | [12] 0.124 | [13] -0.011 | saracatinib -0.029 | sotrastaurin -0.05

Quoted from the results shown (2 entries):
ARL2BP (UniProt Q9Y2Y0)
inactive: ibrutinib 0.002 | [1] -0.005 | ralimetinib 0 | [2] -0.138 | [3] 0.04 | [4] -0.027 | [5] -0.053 | [6] 0.072 | [7] -0.003 | [8] 0.009 | vemurafenib 0.014 | [9] 0.005 | barasertib -0.019 | [10] 0.005 | volasertib -0.005 | [11] 0.019 | [12] -0.167 | [13] 0.035 | saracatinib -0.047 | sotrastaurin 0.067

ARPC4 isoform 3 (UniProt P59998)
inactive: ibrutinib 0.005 | [1] 0.004 | ralimetinib 0.021 | [2] 0.007 | [3] -0.022 | [4] -0.056 | [5] 0.004 | [6] 0.001 | [7] -0.022 | [8] 0.018 | vemurafenib -0.012 | [9] -0.024 | barasertib 0.029 | [10] -0.012 | volasertib 0.026 | [11] 0.047 | [12] 0.005 | [13] 0.033 | saracatinib 0 | sotrastaurin -0.006

Next part

ARMC1 (UniProt Q9NVT9)
inactive: ibrutinib 0.016 | [1] -0.032 | ralimetinib 0.001 | [2] 0.006 | [3] -0.008 | [4] -0.042 | [5] -0.04 | [6] 0.016 | [7] -0.012 | [8] 0 | vemurafenib 0.038 | [9] 0.046 | barasertib 0 | [10] 0.01 | volasertib -0.018 | [11] 0.007 | [12] -0.027 | [13] 0.006 | saracatinib -0.005 | sotrastaurin -0.003

ARHGAP1 (UniProt Q07960)
inactive: ibrutinib -0.005 | [1] -0.006 | ralimetinib -0.008 | [2] -0.015 | [3] -0.042 | [4] -0.017 | [5] -0.035 | [6] -0.013 | [7] -0.029 | [8] -0.022 | vemurafenib 0.012 | [9] 0.007 | barasertib -0.024 | [10] 0.012 | volasertib 0.031 | [11] -0.028 | [12] -0.004 | [13] 0.024 | saracatinib -0.009 | sotrastaurin 0.015

ARMC10 (UniProt Q8N2F6)
inactive: ibrutinib -0.076 | [1] -0.048 | ralimetinib -0.027 | [2] 0.014 | [3] 0.025 | [4] -0.092 | [5] 0.013 | [6] 0.018 | [7] 0 | [8] -0.007 | vemurafenib 0.032 | [9] -0.011 | barasertib 0.051 | [10] -0.038 | volasertib -0.026 | [11] 0.024 | [12] -0.018 | [13] 0.025 | saracatinib -0.021 | sotrastaurin 0.026

ARHGEF11 isoform 2 (UniProt O15085)
inactive: ibrutinib -0.027 | [1] 0.017 | ralimetinib -0.063 | [2] 0.152 | [3] -0.083 | [4] -0.061 | [5] -0.077 | [6] 0.024 | [7] 0.031 | [8] -0.024 | vemurafenib 0.076 | [9] 0.081 | barasertib -0.094 | [10] 0.025 | volasertib 0.037 | [11] -0.033 | [12] -0.023 | [13] 0.003 | saracatinib 0.024 | sotrastaurin -0.005

ARFGAP2 (UniProt Q8N6H7)
inactive: ibrutinib 0.037 | [1] 0.004 | ralimetinib 0.036 | [2] 0.012 | [3] 0.02 | [4] 0.007 | [5] 0.04 | [6] 0.025 | [7] 0.001 | [8] 0.003 | vemurafenib -0.055 | [9] 0.008 | barasertib 0.007 | [10] 0.031 | volasertib -0.003 | [11] 0.029 | [12] -0.015 | [13] 0.054 | saracatinib 0.002 | sotrastaurin -0.009

APOE (UniProt P02649)
inactive: ibrutinib 0.003 | [1] 0.014 | ralimetinib -0.025 | [2] -0.014 | [3] -0.017 | [4] 0.02 | [5] -0.048 | [6] -0.013 | [7] 0.022 | [8] 0.008 | vemurafenib -0.045 | [9] -0.029 | barasertib 0.011 | [10] -0.018 | volasertib 0.005 | [11] -0.05 | [12] 0.031 | [13] -0.043 | saracatinib 0.031 | sotrastaurin 0.023

API5 (UniProt Q9BZZ5)
inactive: ibrutinib 0 | [1] -0.019 | ralimetinib -0.012 | [2] -0.029 | [3] -0.015 | [4] -0.016 | [5] -0.005 | [6] 0.033 | [7] -0.016 | [8] -0.015 | vemurafenib -0.028 | [9] 0 | barasertib -0.004 | [10] 0.011 | volasertib 0.016 | [11] -0.002 | [12] -0.16 | [13] 0.096 | saracatinib 0.003 | sotrastaurin 0.017

ARHGEF6 (UniProt Q15052)
inactive: ibrutinib 0.046 | [1] 0.028 | ralimetinib -0.106 | [2] 0.016 | [3] 0.055 | [4] 0.007 | [5] 0.018 | [6] 0.013 | [7] -0.025 | [8] -0.049 | vemurafenib -0.015 | [9] -0.009 | barasertib 0.136 | [10] -0.001 | volasertib 0.041 | [11] 0.04 | [12] -0.022 | [13] -0.048 | saracatinib 0.074 | sotrastaurin 0.024

ARNT (UniProt P27540)
inactive: ibrutinib -0.052 | [1] -0.039 | ralimetinib 0 | [2] -0.029 | [3] 0.007 | [4] 0.056 | [5] -0.021 | [6] -0.012 | [7] -0.072 | [8] 0.007 | vemurafenib 0.022 | [9] 0.013 | barasertib -0.039 | [10] 0.136 | volasertib -0.067 | [11] 0.008 | [12] -0.066 | [13] 0.027 | saracatinib -0.005 | sotrastaurin 0.007

APEH (UniProt P13798)
inactive: ibrutinib 0.016 | [1] -0.008 | ralimetinib -0.002 | [2] -0.019 | [3] -0.016 | [4] -0.032 | [5] -0.01 | [6] -0.002 | [7] -0.035 | [8] 0.011 | vemurafenib -0.005 | [9] -0.01 | barasertib -0.017 | [10] 0.022 | volasertib 0.03 | [11] 0.008 | [12] 0.03 | [13] 0.016 | saracatinib -0.001 | sotrastaurin -0.012
